Laboratory results from patent US4593018A (National Research Development Corp., priority 1983, dated 1986).

Test: general procedure: solution-phase peptide synthesis; Boc-Asp-ONSu active ester, DIPEA
Details: coupling step

Substance | step yield
Boc--[Asp(OBzl)]3 --Arg(NO2)--semicarbazone | 55%
Boc--[Asp(OBzl)]4 --Arg(NO2)--semicarbazone | 54%
